Assay results taken from patent publication US20130195757, “SPARC BINDING APTAMERS AND USES THEREOF” (ABRAXIS BIOSCIENCE, LLC, published 2013).
Construct, isoform or probe ends are uncertain for at least one entry. Where a protein sequence is shown, tags need not be part of it.

Legend:
[1] = molecular target: T1, SPARC (osteonectin), recombinant human (Biol-SPARC) (Homo sapiens) (UniProt P09486); experiment: SPR; conditions: aptamer immobilized on SA chip; heterogeneous ligand model KD2; KD1 362 nM; purified recombinant protein; label: 3'-biotin; single-stranded DNA; variant of Apt180
T1 sequence (looked up, limits assumed): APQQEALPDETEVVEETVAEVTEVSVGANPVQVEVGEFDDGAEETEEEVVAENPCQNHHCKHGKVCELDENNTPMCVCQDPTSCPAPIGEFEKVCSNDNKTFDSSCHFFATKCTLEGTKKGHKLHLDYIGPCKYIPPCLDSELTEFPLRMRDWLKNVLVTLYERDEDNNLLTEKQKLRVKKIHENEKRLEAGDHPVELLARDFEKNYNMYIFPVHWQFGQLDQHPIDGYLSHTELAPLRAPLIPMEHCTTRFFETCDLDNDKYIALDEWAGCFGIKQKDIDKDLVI

[2] = molecular target: T2, SPARC, recombinant human expressed in E. coli (Homo sapiens) (UniProt P09486); experiment: SPR; conditions: aptamer immobilized on SA chip; purified recombinant protein; protein details: E. coli expressed; label: 3'-biotin; single-stranded DNA; variant of Apt180
T2 sequence (looked up, limits assumed): T1 sequence (looked up, limits assumed)

“GAATTCGATGGTAACCAAGGCTGTTCGGTATTTTGATATTTTTATGCGTCATCTGATCTAGCCAAG [Apt180 3'-biotin]” gave a Kd [1] of 0.174 nM and a Kd [2] of 52.5 nM.
